Results are given in words; binding and its absence hold for the method and conditions named. In cells and extracts the contact can be indirect. Some binding calls cover weakened binding; strength is not graded here. For some of these results: Where a sequence is shown, tags or fusion partners need not be part of it.
Columns and labels:
[1] = molecular target: cMyc-tagged PDLIM7 S89A mutant (human) (UniProt Q9NR12); experiment: co-IP; cMyc-PDLIM7 (WT/S89A) precipitated on anti-cMyc agarose from lysates of T-REx-293 cells with doxycycline-induced knockdown of endogenous PDLIM7, co-expressing HA-p53 and ubiquitin, MG132; in Fig. 6e with or without Nutlin-3a; western blot
[2] = molecular target: cMyc-tagged PDLIM7 (WT) (human) (UniProt Q9NR12); experiment: as above
[3] = molecular target: cMyc-tagged PDLIM7 (WT) (human) (UniProt Q9NR12); experiment: co-IP; cMyc-PDLIM7 precipitated from lysates of T-REx-293 cells with doxycycline-induced Flag-OGA (WT/S652F) expression and endogenous OGA knockdown, co-expressing cMyc-PDLIM7 (WT), HA-p53 and ubiquitin, MG132; western blot

Sequences of proteins named here, by UniProt entry; tags and fusion partners are left off. A change or cut given only in a name is not applied to a line headed by its entry.
UniProt Q9NR12: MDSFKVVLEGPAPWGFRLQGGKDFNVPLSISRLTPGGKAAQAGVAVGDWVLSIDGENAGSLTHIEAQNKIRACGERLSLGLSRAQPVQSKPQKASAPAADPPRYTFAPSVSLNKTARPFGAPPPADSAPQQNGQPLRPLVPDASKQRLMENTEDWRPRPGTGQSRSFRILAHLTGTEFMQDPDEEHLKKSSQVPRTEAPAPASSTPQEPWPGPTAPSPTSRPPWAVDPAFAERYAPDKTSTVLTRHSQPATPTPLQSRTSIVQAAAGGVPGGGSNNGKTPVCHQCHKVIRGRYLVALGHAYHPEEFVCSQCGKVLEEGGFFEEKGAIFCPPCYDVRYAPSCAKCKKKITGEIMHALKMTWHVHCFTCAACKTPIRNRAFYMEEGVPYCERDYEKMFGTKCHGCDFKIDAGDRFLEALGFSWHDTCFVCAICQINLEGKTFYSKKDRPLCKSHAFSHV
UniProt Q00987: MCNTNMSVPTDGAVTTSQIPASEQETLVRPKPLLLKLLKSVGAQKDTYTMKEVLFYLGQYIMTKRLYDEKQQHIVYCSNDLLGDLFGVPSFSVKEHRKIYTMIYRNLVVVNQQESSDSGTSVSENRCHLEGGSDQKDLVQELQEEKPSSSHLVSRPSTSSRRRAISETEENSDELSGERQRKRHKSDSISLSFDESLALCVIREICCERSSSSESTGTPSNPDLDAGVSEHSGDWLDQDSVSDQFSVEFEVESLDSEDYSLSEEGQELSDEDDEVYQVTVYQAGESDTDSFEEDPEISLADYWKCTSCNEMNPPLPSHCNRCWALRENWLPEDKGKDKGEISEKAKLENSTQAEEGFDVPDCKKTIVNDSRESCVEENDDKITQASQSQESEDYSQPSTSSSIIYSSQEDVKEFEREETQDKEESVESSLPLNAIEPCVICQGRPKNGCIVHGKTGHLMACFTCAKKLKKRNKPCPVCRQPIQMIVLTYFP

| binding [1] | binding [2] | binding [3] | Molecule |
| --- | --- | --- | --- |
| binds | binds | binds | MDM2 (from UniProt Q00987 1-491) |
|  |  | binds | Flag-tagged OGA S652F mutant (enzyme, UniProt O60502 1-916) MVQKESQATLEERESELSSNPAASAGASLEPPAAPAPGEDNPAGAGGAAVAGAAGGARRFLCGVVEGFYGRPWVMEQRKELFRRLQKWELNTYLYAPKDDYKHRMFWREMYSVEEAEQLMTLISAAREYEIEFIYAISPGLDITFSNPKEVSTLKRKLDQVSQFGCRSFALLFDDIDHNMCAADKEVFSSFAHAQVSITNEIYQYLGEPETFLFCPTEYCGTFCYPNVSQSPYLRTVGEKLLPGIEVLWTGPKVVSKEIPVESIEEVSKIIKRAPVIWDNIHANDYDQKRLFLGPYKGRSTELIPRLKGVLTNPNCEFEANYVAIHTLATWYKSNMNGVRKDVVMTDSEDSTVSIQIKLENEGSDEDIETDVLYSPQMALKLALTEWLQEFGVPHQYSSRQVAHSGAKASVVDGTPLVAAPSLNATTVVTTVYQEPIMSQGAALSGEPTTLTKEEEKKQPDEEPMDMVVEKQEETDHKNDNQILSEIVEAKMAEELKPMDTDKESIAESKSPEMSMQEDCISDIAPMQTDEQTNKEQFVPGPNEKPLYTAEPVTLEDLQLLADLFYLPYEHGPKGAQMLREFQWLRANSSVVSVNCKGKDSEKIEEWRSRAAKFEEMCGLVMGMFTRLSNCANRTILYDMYSYVWDIKSIMFMVKSFVQWLGCRSHSSAQFLIGDQEPWAFRGGLAGEFQRLLPIDGANDLFFQPPPLTPTSKVYTIRPYFPKDEASVYKICREMYDDGVGLPFQSQPDLIGDKLVGGLLSLSLDYCFVLEDEDGICGYALGTVDVTPFIKKCKISWIPFMQEKYTKPNGDKELSEAEKIMLSFHEEQEVLPETFLANFPSLIKMDIHKKVTDPSVAKSMMACLLSSLKANGSRGAFCEVRPDDKRILEFYSKLGCFEIAKMEGFPKDVVILGRSL |

From paper PMC10055641
